Measured values from PubChem BioAssay AID445 (National Center for Advancing Translational Sciences (NCATS), 2006).
Some of the results follow. The main result of the screen is listed elsewhere. These columns were measured beside it and carry no call. The list favours compounds with an active or inconclusive main result. Words in brackets tell the shape of the fitted curve; partial curves, single points and poor fits give uncertain potencies.

Assay: IkB Signaling
Details: ABC-DLBCL IkBa-CBG/CBR dual luciferase ratio (green luciferase fused to IkBa over red control in OCI-Ly3 lymphoma cells), 4 h
How it was run: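 Curves were fitted separately to fusion (green), unfused (red) and ratio luminescence, then classed by r2, magnitude and activity. Cells: OCI-Ly3, 4 h compound plus doxycycline at 37C; 10 uM MG-132 defined full response.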

[1] = measured here: control luc red channel unless noted

SMILES: Cc1cc2ccccc2n1CCNC(=O)c1cccc(Cl)c1
- AC50 [1]: 31.6 µM [falling, single point]

SMILES: Cn1c(CNc2cccc(Cl)c2)nnc1SCC(=O)OC1CCCCC1
- AC50 [1]: 25.1 µM [falling, single point]

SMILES: CC(C)c1ccc(NC(=O)c2cc(S(=O)(=O)NCc3ccccc3Cl)ccc2F)cc1
- AC50 [1]: 15.8 µM [falling, partial curve]

SMILES: Cc1ccc(-c2cc(C(=O)N3CCN(C(=O)c4ccco4)CC3)no2)cc1
- AC50 [1]: 20 µM [falling, partial curve]

SMILES: N#Cc1c[nH]n2c(NC3CCCC3)c(-c3cccc(Cl)c3)nc12
- AC50 [1]: 25.1 µM [falling, single point]

SMILES: Cc1ccc(N(CC(=O)Nc2ccc(C)c(F)c2)S(=O)(=O)c2c(C)n[nH]c2C)cc1
- AC50 [1]: 20 µM [falling, partial curve]

SMILES: CCOc1cc(C(=O)N2CCc3c([nH]c4ccccc34)C2c2ccccc2)cc(OCC)c1OCC (centres undefined)
- AC50 [1]: 0.251 µM [falling, full curve, poor fit]

SMILES: COc1ccc(C)cc1NC(=O)Cn1c(=O)ccc2cc(S(=O)(=O)N3CCCC3)ccc21
- AC50 [1]: 0.316 µM [falling, full curve]

SMILES: CN(C)c1nc(Oc2ccc(C(=O)OCC(=O)Nc3ccccc3)cc2)nc(N(C)C)n1
- AC50 [1]: 7.94 µM [falling, partial curve]

SMILES: CCCCOc1ccccc1NC(=O)CC1SC(=NCC)N(CC)C1=O (centres undefined)
- AC50 [1]: 12.6 µM [falling, partial curve]

SMILES: Cc1ccc(S(=O)(=O)c2nc(-c3ccco3)oc2SCC(C)C)cc1
- AC50 [1]: 10 µM [falling, partial curve, poor fit]

SMILES: O=C(Cc1ccc(NC(=O)N2CCCCc3ccccc32)cc1)NCc1ccccc1
- AC50 [1]: 10 µM [falling, partial curve]

SMILES: CCCCn1cc(S(=O)(=O)c2ccc(F)cc2)c(=O)c2ccccc21
- AC50 [1]: 15.8 µM [falling, partial curve]

SMILES: COc1cccc(NC(=O)Cc2cn(C)c3ccccc23)c1
- AC50 [1]: 0.316 µM [falling, partial curve]

SMILES: COc1ccc(Cn2c(SCC(N)=O)nc3c(sc4ccccc43)c2=O)cc1
- AC50 (measured here: IkB-luc green channel): 39.8 µM [rising, single point]
- AC50 (measured here: control luc red channel): 5.01 µM [rising, full curve]

SMILES: Cc1cnc2c(c1SCC(=O)Nc1ccc(F)cc1F)c(=O)n(C)c(=O)n2C
- AC50 [1]: 39.8 µM [falling, single point]

SMILES: c1ccc(OCCSc2ncnc3nc[nH]c23)cc1
- AC50 [1]: 12.6 µM [falling, partial curve]

SMILES: COc1ccc(N(Cc2cccs2)C(=O)COc2ccc(C(C)C)cc2)cc1
- AC50 [1]: 12.6 µM [falling, partial curve]
